Source: article PMC11845477, “Exploring the principles behind antibiotics with limited resistance” (Nature Communications, 2025)

Test system: E. coli K12 BW25113 bearing the ASKA plasmid pool
Assay: Genome-wide overexpression (ASKA) library screening on antibiotic gradient plates
Format: cell-based, Escherichia coli
Settings: genes with over 1% read coverage relative to total coverage per antibiotic

Substance | Overexpressed gene (reduces antibiotic susceptibility upon overexpression)
POL7306 | not found
Tridecaptin M152-P3 | not found
